# This continues a long series; more values of the same kind are listed elsewhere.
# How the values were obtained:
# Type in all cases: functional
# [1] = tested on: Aspergillus fumigatus; assay: Induction of change in extracellular cell wall glucanase Crf1/allergen Asp F9 protein level in iTRAQ-116 labelled secreted fraction of drug-susceptible Aspergillus fumigatus KU80 delta-akuB at 0.12 ug/ml after 48 hrs in YPD medium by MS (MS/MS) analysis relative to control
# [2] = tested on: Aspergillus fumigatus; assay: Induction of change in ribosomal protein S8 gene expression in drug-susceptible Aspergillus fumigatus KU80 delta-akuB at 0.12 ug/ml after 24 hrs in YPD medium by microarray analysis relative to control
# [3] = tested on: Aspergillus fumigatus; assay: Induction of change in hypothetical gene locus AFUA_3G13080 expression in drug-susceptible Aspergillus fumigatus KU80 delta-akuB at 0.12 ug/ml after 48 hrs in YPD medium by microarray analysis relative to control
# [4] = tested on: Aspergillus fumigatus; assay: Induction of change in 60S ribosomal protein L44 protein level in iTRAQ114 labelled cell wall fraction of drug-susceptible Aspergillus fumigatus KU80 delta-akuB at 0.12 ug/ml after 24 hrs in YPD medium by MS (MS/MS) analysis relative to control
# [5] = tested on: Aspergillus fumigatus; assay: Induction of change in phosphoglycerate kinase PgkA, putative protein level in iTRAQ-118 labelled cell wall fraction of drug-susceptible Aspergillus fumigatus KU80 delta-akuB at 0.12 ug/ml after 24 hrs in YPD medium by MS (MS/MS) analysis relative to control
# [6] = tested on: Aspergillus fumigatus; assay: Induction of change in hypothetical protein level in iTRAQ121 labelled cell wall fraction of drug-susceptible Aspergillus fumigatus KU80 delta-akuB at 0.12 ug/ml after 48 hrs in YPD medium by MS (MS/MS) analysis relative to control
# [7] = tested on: Aspergillus fumigatus; assay: Induction of change in ribosomal protein S14.e protein level in iTRAQ114 labelled cell wall fraction of drug-susceptible Aspergillus fumigatus KU80 delta-akuB at 0.12 ug/ml after 24 hrs in YPD medium by MS (MS/MS) analysis relative to control
# [8] = tested on: Aspergillus fumigatus; assay: Induction of change in 40s ribosomal protein s11 gene expression in drug-susceptible Aspergillus fumigatus KU80 delta-akuB at 0.12 ug/ml after 24 hrs in YPD medium by microarray analysis relative to control
# [9] = tested on: Aspergillus fumigatus; assay: Induction of change in GNAT family acetyltransferase, putative protein level in iTRAQ-116 labelled secreted fraction of drug-susceptible Aspergillus fumigatus KU80 delta-akuB at 0.12 ug/ml after 48 hrs in YPD medium by MS (MS/MS) analysis relative to control
# [10] = tested on: Aspergillus fumigatus; assay: Induction of change in CipC-like antibiotic response protein, putative protein level in iTRAQ-116 labelled secreted fraction of drug-resistant Aspergillus fumigatus EMFR-S678P at 0.12 ug/ml after 48 hrs in YPD medium by MS (MS/MS) analysis relative to control
# [11] = tested on: Aspergillus fumigatus; assay: Induction of change in Hsp90 binding co-chaperone (Sba1), putative protein level in iTRAQ-116 labelled secreted fraction of drug-resistant Aspergillus fumigatus EMFR-S678P at 0.12 ug/ml after 48 hrs in YPD medium by MS (MS/MS) analysis relative to control
# [12] = tested on: Aspergillus fumigatus; assay: Induction of change in Mitochondrial hypoxia-responsive domain protein level in iTRAQ114 labelled cell wall fraction of drug-susceptible Aspergillus fumigatus KU80 delta-akuB at 0.12 ug/ml after 24 hrs in YPD medium by MS (MS/MS) analysis relative to control
# [13] = tested on: Aspergillus fumigatus; assay: Induction of change in 40S ribosomal protein S8e protein level in iTRAQ-118 labelled cell wall fraction of drug-susceptible Aspergillus fumigatus KU80 delta-akuB at 0.12 ug/ml after 24 hrs in YPD medium by MS (MS/MS) analysis relative to control
# [14] = tested on: Aspergillus fumigatus; assay: Induction of change in nuclear transport factor NTF-2, putative protein level in iTRAQ114 labelled secreted fraction of drug-susceptible Aspergillus fumigatus KU80 delta-akuB at 0.12 ug/ml after 24 hrs in YPD medium by MS (MS/MS) analysis relative to control
# [15] = tested on: Aspergillus fumigatus; assay: Induction of change in 60S ribosomal protein L11 protein level in iTRAQ114 labelled cell wall fraction of drug-susceptible Aspergillus fumigatus KU80 delta-akuB at 0.12 ug/ml after 24 hrs in YPD medium by MS (MS/MS) analysis relative to control
# [16] = tested on: Aspergillus fumigatus; assay: Induction of change in ubiquitin (UbiC), putative protein level in iTRAQ114 labelled cell wall fraction of drug-susceptible Aspergillus fumigatus KU80 delta-akuB at 0.12 ug/ml after 24 hrs in YPD medium by MS (MS/MS) analysis relative to control
# [17] = tested on: Aspergillus fumigatus; assay: Induction of change in 60S ribosomal protein L1 protein level in iTRAQ114 labelled secreted fraction of drug-susceptible Aspergillus fumigatus KU80 delta-akuB at 0.12 ug/ml after 24 hrs in YPD medium by MS (MS/MS) analysis relative to control
# [18] = tested on: Aspergillus fumigatus; assay: Induction of change in non-classical export protein (Nce2), putative gene expression in drug-susceptible Aspergillus fumigatus KU80 delta-akuB at 0.12 ug/ml after 24 hrs in YPD medium by microarray analysis relative to control
# [19] = tested on: Aspergillus fumigatus; assay: Induction of change in bifunctional catalase-peroxidase Cat2 gene expression in drug-susceptible Aspergillus fumigatus KU80 delta-akuB at 0.12 ug/ml after 48 hrs in YPD medium by microarray analysis relative to control
# [20] = tested on: Aspergillus fumigatus; assay: Induction of change in vip1 gene expression in drug-susceptible Aspergillus fumigatus KU80 delta-akuB at 0.12 ug/ml after 48 hrs in YPD medium by microarray analysis relative to control
# [21] = tested on: Aspergillus fumigatus; assay: Induction of change in Ribosomal L15 gene expression in drug-susceptible Aspergillus fumigatus KU80 delta-akuB at 0.12 ug/ml after 24 hrs in YPD medium by microarray analysis relative to control
# [22] = tested on: Aspergillus fumigatus; assay: Induction of change in secreted dipeptidyl peptidase DppV protein level in iTRAQ-118 labelled cell wall fraction of drug-resistant Aspergillus fumigatus EMFR-S678P at 0.12 ug/ml after 24 hrs in YPD medium by MS (MS/MS) analysis relative to control
# [23] = tested on: Aspergillus fumigatus; assay: Induction of change in Iron-sulfur cluster assembly accessory protein subfamily, putative gene expression in drug-susceptible Aspergillus fumigatus KU80 delta-akuB at 0.12 ug/ml after 24 hrs in YPD medium by microarray analysis relative to control
# [24] = tested on: Aspergillus fumigatus; assay: Induction of change in isocitrate dehydrogenase Idp1, putative protein level in iTRAQ-118 labelled cell wall fraction of drug-resistant Aspergillus fumigatus EMFR-S678P at 0.12 ug/ml after 24 hrs in YPD medium by MS (MS/MS) analysis relative to control
# [25] = tested on: Aspergillus fumigatus; assay: Induction of change in extracellular serine-rich protein, putative protein level in iTRAQ-118 labelled cell wall fraction of drug-susceptible Aspergillus fumigatus KU80 delta-akuB at 0.12 ug/ml after 24 hrs in YPD medium by MS (MS/MS) analysis relative to control
smiles,measurement,setting,value
CC[C@H](C)C[C@H](C)CCCCCCCCC(=O)N[C@H]1C[C@@H](O)[C@@H](NCCN)NC(=O)[C@@H]2[C@@H](O)CCN2C(=O)[C@H]([C@H](O)CCN)NC(=O)[C@H]([C@H](O)[C@@H](O)c2ccc(O)cc2)NC(=O)[C@@H]2C[C@@H](O)CN2C(=O)[C@H]([C@@H](C)O)NC1=O [CASPOFUNGIN],fold change (FC),[1],-3.7
same,fold change (FC),[2],4.9
same,fold change (FC),[3],-3.1
same,fold change (FC),[4],2.1
same,fold change (FC),[5],-3.5
same,fold change (FC),[6],>16
same,fold change (FC),[7],1.5
same,fold change (FC),[8],3.1
same,fold change (FC),[9],-2
same,fold change (FC),[10],-1.23
same,fold change (FC),[11],1.15
same,fold change (FC),[12],-6.1
same,fold change (FC),[13],2.8
same,fold change (FC),[14],-3.7
same,fold change (FC),[15],2.1
same,fold change (FC),[16],-1.9
same,fold change (FC),[17],-1.2
same,fold change (FC),[18],-4.9
same,fold change (FC),[19],-4.1
same,fold change (FC),[20],-2.2
same,fold change (FC),[21],4.4
same,fold change (FC),[22],-1.74
same,fold change (FC),[23],4.2
same,fold change (FC),[24],-1.23
same,fold change (FC),[25],2.1

# — ChEMBL document CHEMBL1687827, “Profiling the Aspergillus fumigatus proteome in response to caspofungin” (2011)
